These are yes or no findings as the source states them, for the method shown. In cells and extracts the contact can be indirect. A yes stands for co-enrichment or nearness to the bait. Other partners may have been found. Where a sequence is shown, tags or fusion partners need not be part of it.
Molecular target: EGFP-Otub2 (mouse)
Test: affinity purification with mass spectrometry

B1: voltage-gated potassium channel subunit Kv9.3 (protein, UniProt Q8BQZ8 1-491)
chain: MVFGEFFHRPGQDEELVNLNVGGFKQSVDQSTLLRFPHTRLGKLLTCHSEEAILELCDDYSVADKEYYFDRNPFLFRYVLNFYYTGKLHVMEELCVFSFCQEIEYWGINELFIDSCCSSRYQERKEESHDKDWDQKSNDVSTDSSFEESSLFEKELEKFDELRFGQLRKKIWIRMENPAYCLSAKLIAISSLSVVLASIVAMCVHSMSEFQNEDGEVDDPVLEGVEIACIAWFTGELAIRLVAAPSQKKFWKNPLNIIDFVSIIPFYATLAVDTKEEESEDIENMGKVVQILRLMRIFRILKLARHSVGLRSLGATLRHSYHEVGLLLLFLSVGISIFSVLIYSVEKDEHKSSLTSIPICWWWATISMTTVGYGDTHPVTLAGKIIASTCIICGILVVALPITIIFNKFSKYYQKQKDMEVDQCSEDPPEKCHELPYFNIRDVYAQQVHAFITSLSSIGIVVSDPDSTDASSVEDNEDAYNTASLENCTGK
binding: binds

Reference: paper doi:10.1101/2024.09.30.615641
